Some results were stated once for a whole list of compounds, not compound by compound.
System: rats
Assay: Acute toxicity test, oral administration to rats
Type: in vivo, rat
Details: 8 g/kg

Row | Compound | acute toxicity, viability of rats
1 | CCC=CC(=O)NCCSSCCNC(=O)C=CCC [Compound 1, [SCH2 CH2 NH--COCH=CHCH2 CH3]2] | All rats remained viable
2 | CCCC=CC(=O)NCCSSCCNC(=O)C=CCCC [Compound 2, [SCH2 CH2 NH--COCH=CH(CH2)2 CH3]2] | All rats remained viable
3 | CCCCC=CC(=O)NCCSSCCNC(=O)C=CCCCC [Compound 3, [SCH2 CH2 NH--COCH=CH(CH2)3 CH3]2] | All rats remained viable
4 | CCCCCC=CC(=O)NCCSSCCNC(=O)C=CCCCCC [Compound 4, [SCH2 CH2 NH--COCH=CH(CH2)4 CH3]2] | All rats remained viable
